The chains behind the UniProt entries cited, without tags or fusion partners.
UniProt P27695, whole entry, looked up: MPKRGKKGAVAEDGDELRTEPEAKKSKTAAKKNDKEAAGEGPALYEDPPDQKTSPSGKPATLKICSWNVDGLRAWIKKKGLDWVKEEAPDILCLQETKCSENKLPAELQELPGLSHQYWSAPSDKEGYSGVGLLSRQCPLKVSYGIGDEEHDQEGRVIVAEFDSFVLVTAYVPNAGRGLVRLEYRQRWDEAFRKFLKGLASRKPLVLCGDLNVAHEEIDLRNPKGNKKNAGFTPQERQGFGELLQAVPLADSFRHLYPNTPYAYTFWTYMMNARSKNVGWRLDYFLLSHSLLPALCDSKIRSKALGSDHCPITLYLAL

Out of some 350,000 compounds screened, about 1,200 (0.34%) were called active. This list was built around the results that the source calls inconclusive (neither active nor inactive); the mix of calls is not that of the screen. Calls follow the shape of the dose curve; as a rule, active = well fitted inhibition curve with a large enough effect; inconclusive = small, poorly fitted or top-dose-only effect; inactive = no such curve, though single readings can be large or run the other way. Where the call is inconclusive, the potency comes from a doubtful curve fit.
The molecules below were run against DNA repair nuclease/redox regulator APEX1 (Homo sapiens) (UniProt P27695) (assay: qHTS Assay for Inhibitors of the Human Apurinic/apyrimidinic Endonuclease 1 (APE1)). Details: recombinant APE1, TAMRA/BHQ-2 abasic DNA cleavage fluorescence; activity change, negative = inhibition: at 65.8 µM (top of the series).
Outline: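 Incision of a quenched TAMRA/BHQ-2 THF abasic-site duplex (50 nM) by 0.75 nM APE1, after 15 min compound preincubation, measured as fluorescence increase over three 60 s reads. Values normalized to buffer, DMSO and NSC13755 control wells.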
For `CCOC(=O)COc1ccc(S(=O)(=O)Nc2ccc(C)cc2)cc1`, the Potency was inconclusive: 0.0398 µM [inhibitor, full curve, poor fit].
`Cc1[nH][nH]c(=O)c1C(c1ccc(-c2cccc(C(=O)O)c2)o1)c1c(C)[nH][nH]c1=O` was tested, and the Potency was active: 17.8 µM.
With `O=C(c1cccc(F)c1)N1CCC2(CC1)CCN(c1cccc(-c3ccccc3)c1)CC2` the Potency was inconclusive: 39.8 µM [inhibitor, single point].
With `Clc1ccc(Nc2ncn[nH]2)c(Cl)c1` the “activity change, negative = inhibition” value was inactive: 2.5%.
`Cc1nc(SCc2ccc(O)c([N+](=O)[O-])c2)n[nH]1` was tested, and the “activity change, negative = inhibition” value was inactive: 2.08%.
`CCOC(=O)Cc1c(C)c2ccc(N(CC)CC)cc2oc1=O` was tested, and the Potency was inconclusive: 44.7 µM [inhibitor, single point].
For `CCOc1ccc(NS(=O)(=O)c2ccc3[nH]c(=O)c(=O)[nH]c3c2)cc1`, the Potency was inconclusive: 1.12 µM [inhibitor, full curve].
With `Cc1ccc(C(=O)OCC(=O)c2ccc(CC(=O)N3CCOCC3)s2)c(C)c1` the Potency was inconclusive: 16.8 µM [inhibitor, single point].
With `CC1=C(C#N)C(c2cn(-c3ccccc3)nc2-c2cccs2)C(C#N)=C(C)N1` the “activity change, negative = inhibition” value was inactive: -4.1%.
`CNc1c([N+](=O)[O-])cnn1-c1ccc(F)cc1` was tested, and the “activity change, negative = inhibition” value was inactive: 1.3%.
For `Cc1ccc(OCC(=O)NC2CC(C)(C)NC(C)(C)C2)cc1C`, the “activity change, negative = inhibition” value was inactive: 0.942%.
`O=C1C2C(C(=O)N1/N=C/c1cc([N+](=O)[O-])c(O)cc1O)C1C=CC2C12CC2` (stereo unspecified) was tested, and the Potency was inconclusive: 35.5 µM [inhibitor, single point].
For `COc1ccc(C2=Nn3c(nnc3-c3ccccc3OC)SC2)cc1OC`, the Potency was “inactive”.
With `CCN(CC)S(=O)(=O)c1ccc(/C=C/C(=O)OCC(=O)NCc2ccco2)cc1` the Potency was inconclusive: 29.9 µM [inhibitor, single point].
In the case of `COc1cccc(NC(=O)Cn2c(CCC(=O)O)ccc2-c2ccc(Cl)cc2)c1`, the “activity change, negative = inhibition” value is reported as inactive: 1.33%.
`N[C@H](C(=O)O)c1ccc(O)c(C(=O)O)c1` was tested, and the Potency was inconclusive: 39.8 µM [inhibitor, single point].
With `Cc1ccc(CNC(=O)C2(NC(=O)Nc3ccc(C)cc3)CCCCC2)cc1` the Potency was inconclusive: 44.7 µM [inhibitor, partial curve, poor fit].
With `Cc1ccc(-c2nc3ccccc3o2)cc1NC(=S)NC(=O)/C=C/c1ccco1` the “activity change, negative = inhibition” value was inactive: -5.45%.
In the case of `Cn1c(=O)c(C(=O)Nc2ncccc2O)c(O)c2ccccc21`, the “activity change, negative = inhibition” value is reported as inactive: 8.82%.
For `NC1=NC(=O)/C(=C/c2cccc(-c3ccc(S(N)(=O)=O)cc3)c2)S1`, the “activity change, negative = inhibition” value was inactive: 17.6%.
In the case of `CC(C)(Oc1ccc(-c2ccco2)cc1)C(=O)O`, the “activity change, negative = inhibition” value is reported as inactive: -2.82%.
With `O=C(CCN1C(=O)c2ccccc2S1(=O)=O)NCc1ccco1` the Potency was inconclusive: 6.31 µM [inhibitor, single point].
In the case of `O=C(CN1C(=O)c2ccccc2S1(=O)=O)Nc1ccc(S(=O)(=O)N2CCCC2)cc1`, the Potency is reported as inconclusive: 8.91 µM [inhibitor, single point].
With `CS(=O)(=O)Nc1ccc(C2=NN(C(=O)c3ccco3)C(c3ccccc3)C2)cc1` (stereo unspecified) the “activity change, negative = inhibition” value was inactive: -1.51%.
In the case of `N#C/C(=C\c1coc2ccc(O)cc2c1=O)C(=O)Nc1nc2ccccc2s1`, the Potency is reported as inconclusive: 28.2 µM [inhibitor, single point].
In the case of `C/C(N)=C(/C#N)C(=O)CSc1nc2ccccc2[nH]1`, the Potency is reported as inconclusive: 20 µM [inhibitor, single point].
With `O=c1oc2ccccc2c(O)c1Cc1cc(Cl)c2cccnc2c1O` the “activity change, negative = inhibition” value was inactive: 9.63%.
In the case of `CS(=O)(=O)Oc1ccc2c(c1)O/C(=C\c1cccnc1)C2=O`, the Potency is reported as inconclusive: 12.6 µM [inhibitor, single point].
With `O=C(NCC1CCCO1)c1ccc(CS(=O)(=O)c2c(Cl)cccc2Cl)o1` (stereo unspecified) the “activity change, negative = inhibition” value was inactive: -5.99%.
In the case of `C=CCN1C(=O)/C(=C2/Sc3ccc(OC)cc3N2C)SC1=NCc1ccccc1`, the Potency is reported as inconclusive: 25.1 µM [inhibitor, partial curve, poor fit].
`CC1=CC(=O)C=C(C)C1=NOc1ccc([N+](=O)[O-])cc1` was tested, and the Potency was inconclusive: 7.94 µM [inhibitor, full curve, poor fit].
In the case of `O=C(O)/C=C/C(=O)Nc1ccc(C2(c3ccc(NC(=O)/C=C/C(=O)O)cc3)c3ccccc3-c3ccccc32)cc1`, the “activity change, negative = inhibition” value is reported as inactive: 4.07%.
`Cc1c(NC(=O)CN2C(=O)c3ccc([N+](=O)[O-])cc3C2=O)c(=O)n(-c2ccccc2)n1C` was tested, and the Potency was inconclusive: 0.316 µM [inhibitor, full curve].
For `CC(=O)NN1C(=O)/C(=C/c2ccc(Br)o2)SC1=S`, the Potency was active: 31.6 µM.
`CCOC(=O)CCN1C(=O)[C@H]2[C@H]3[C@H](O)[C@H](O)C/C(=N/OCc4ccccc4)[C@H]3CC[C@@H]2C1=O` was tested, and the Potency was inconclusive: 7.94 µM [inhibitor, single point].
In the case of `Cc1nn2c(NCCOCCO)c3c(nc2c1-c1ccccc1)CCC3`, the Potency is reported as inconclusive: 3.55 µM [inhibitor, single point].
`CN(C)c1cc(-c2ccc(F)cc2)oc(=O)c1Cl` was tested, and the Potency was inconclusive: 7.94 µM [inhibitor, single point].
For `C#CCOCCOCCOCCNc1nc(N2CCN(C(=O)CCCCCCCCCCNC(=O)[C@H](CCCN=C(N)N)n3cc(C[C@@H](C)CC)nn3)CC2)nc(N2CCN(C(=O)CCCCCCCCCCNC(=O)[C@@H]([C@H](C)CC)n3cc(CCCCCN)nn3)CC2)n1`, the Potency was inconclusive: 37.7 µM [inhibitor, single point].
With `COC(=O)C1(C)Cc2cc(OC(C)=O)c(OC(C)=O)cc2N1` (stereo unspecified) the Potency was inconclusive: 35.5 µM [inhibitor, single point].
For `O=C1[C@H]2[C@H]3[C@H](O)[C@H](O)C/C(=N/OC[C@@H](O)COCc4ccco4)[C@H]3CC[C@@H]2C(=O)N1C[C@@H]1CCCO1`, the Potency was inconclusive: 7.94 µM [inhibitor, single point].
With `Cc1ccc(-c2nc3ncccc3o2)cc1NC(=S)NC(=O)c1ccco1` the Potency was inconclusive: 31.6 µM [inhibitor, partial curve, poor fit].
For `CN(C)c1ccc(NC(=O)/C=C/c2c(Cl)cccc2Cl)cc1`, the Potency was inconclusive: 44.7 µM [inhibitor, single point].
`O=C(Oc1ccccc1)N1CCC[C@@]2(CCN(c3ncccn3)C2)C1` was tested, and the Potency was inconclusive: 0.178 µM [inhibitor, full curve].
In the case of `CC1CC(C)(C)CC2(C1)NC(=O)N(CC(=O)Nc1ccc3[nH]c(=O)[nH]c3c1)C2=O` (stereo unspecified), the Potency is reported as inconclusive: 37.7 µM [inhibitor, single point].
For `Cc1ccc(C(=O)NC(=S)Nc2ccc3[nH]c(=O)[nH]c3c2)c(C)c1`, the Potency was inconclusive: 3.98 µM [inhibitor, single point].
With `O=C(N/N=C/c1ccccc1F)c1ccc(COc2ccccc2Cl)o1` the Potency was inconclusive: 44.7 µM [inhibitor, single point].
`Cc1cc(C)c2nc(NNC(=O)c3ccc(S(=O)(=O)N4CC(C)CC(C)C4)cc3)sc2c1` (stereo unspecified) was tested, and the Potency was inconclusive: 3.55 µM [inhibitor, single point].
`Cc1ccc(F)cc1NC(=O)C1CC(=O)N(CCc2ccccc2)C1` (stereo unspecified) was tested, and the Potency was inconclusive: 11.2 µM [inhibitor, partial curve, poor fit].
In the case of `c1ccc2[nH]c3cc4ncnc4cc3nc2c1`, the Potency is reported as inconclusive: 15.8 µM [inhibitor, partial curve].
For `Cc1ccc(-n2c(SCCN)nnc2-c2cccc(C)c2)cc1`, the Potency was inconclusive: 1.12 µM [inhibitor, full curve].
`Cc1nc2ccccc2c2nc(N)nn12` was tested, and the Potency was inconclusive: 0.447 µM [inhibitor, full curve].
For `Cc1ccccc1NC(=O)C1CCCN1S(=O)(=O)c1ccccc1C(F)(F)F` (stereo unspecified), the “activity change, negative = inhibition” value was inactive: 21.5%.
In the case of `COc1ccc(/C=C2\SC(=S)N(CCCC(=O)Nc3ccc(O)cc3)C2=O)cc1`, the “activity change, negative = inhibition” value is reported as inactive: -6.89%.
With `CCCOc1ccc(/C=N/NC(=O)CSc2ccccn2)cc1OC` the Potency was inconclusive: 1.58 µM [inhibitor, partial curve, poor fit].
In the case of `O=C(CSc1n[nH]c(-c2ccccc2)n1)NC(=O)NCc1ccco1`, the Potency is reported as inconclusive: 39.8 µM [inhibitor, single point].
In the case of `O=C(CNCC1CCCO1)Nc1ccc(N2CCCCCC2)cc1` (stereo unspecified), the Potency is reported as inconclusive: 12.6 µM [inhibitor, partial curve, poor fit].
In the case of `COCCn1c(C)cc(/C=C(\C#N)C(=O)OCC(=O)N(C)c2c(N)n(Cc3ccccc3)c(=O)[nH]c2=O)c1C`, the “activity change, negative = inhibition” value is reported as inactive: 15.1%.
With `O=C(Nc1nc(-c2ccc3c(c2)OCCO3)cs1)c1ccc(S(=O)(=O)N2CCCCC2)cc1` the Potency was inconclusive: 44.7 µM [inhibitor, single point].
With `Cc1nc(Cl)sc1C(=O)O` the Potency was inconclusive: 22.4 µM [inhibitor, single point].
`CCCOc1ccc2cc(-c3ccccn3)c(=O)oc2c1` was tested, and the Potency was inconclusive: 0.0316 µM [inhibitor, full curve, poor fit].
In the case of `Cc1cccc(/N=C/c2c(O)cc(C)oc2=O)n1`, the “activity change, negative = inhibition” value is reported as inactive: -3.97%.
`O=C(CSc1ccccc1)N1CCN(S(=O)(=O)c2ccccc2F)CC1` was tested, and the “activity change, negative = inhibition” value was inactive: -6.65%.
For `O=S(=O)(c1ccc2c(c1)C(=NO)c1cc(S(=O)(=O)N3CCCCC3)ccc1-2)N1CCCCC1`, the Potency was inconclusive: 0.501 µM [inhibitor, full curve].
For `CC(=O)N1CCN(c2nc(-c3cccs3)nc3ccccc23)CC1`, the Potency was inconclusive: 0.178 µM [inhibitor, full curve].
With `COc1cccc(-c2csc(N3CCN(C(=O)C4CCCCC4)CC3)n2)c1` the Potency was inconclusive: 44.7 µM [inhibitor, single point].
For `Cc1cc(C)c(NC(=O)CN(c2ccccc2)S(=O)(=O)N(C)C)c(C)c1`, the Potency was inconclusive: 39.8 µM [inhibitor, single point].
Also: nearly all actives have a fitted effect of over 55% in size.
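For activity change, negative = inhibition in this document: plate controls were vehicle for no effect and reference inhibitor for full effect.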
Potency is read from the fitted curve at half-maximal effect.
